Results from doi:10.1101/2024.08.19.608612.
Like-named read-outs stand apart in the source and are kept apart here. Results are given in words; binding and its absence hold for the method and conditions named. Binding seen in cells or lysates may run through a third protein. Some binding calls cover weakened binding; strength is not graded here. For some of these results: Tags and fused reporters may be left off the sequences shown. Each block holds one molecule with its values, some of them ahead of it.

Sequences of proteins named here, by UniProt entry; tags and fusion partners are left off.
UniProt Q9HC16: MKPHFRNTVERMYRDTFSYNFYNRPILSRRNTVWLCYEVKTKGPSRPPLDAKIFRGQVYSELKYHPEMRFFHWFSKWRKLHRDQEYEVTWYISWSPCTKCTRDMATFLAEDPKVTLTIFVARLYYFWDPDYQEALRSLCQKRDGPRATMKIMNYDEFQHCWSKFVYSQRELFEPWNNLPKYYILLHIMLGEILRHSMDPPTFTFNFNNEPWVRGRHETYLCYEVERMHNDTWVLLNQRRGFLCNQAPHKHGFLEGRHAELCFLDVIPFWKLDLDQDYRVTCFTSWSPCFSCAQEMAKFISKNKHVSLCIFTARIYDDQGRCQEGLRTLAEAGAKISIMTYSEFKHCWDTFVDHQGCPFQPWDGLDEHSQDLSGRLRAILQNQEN
UniProt O35286: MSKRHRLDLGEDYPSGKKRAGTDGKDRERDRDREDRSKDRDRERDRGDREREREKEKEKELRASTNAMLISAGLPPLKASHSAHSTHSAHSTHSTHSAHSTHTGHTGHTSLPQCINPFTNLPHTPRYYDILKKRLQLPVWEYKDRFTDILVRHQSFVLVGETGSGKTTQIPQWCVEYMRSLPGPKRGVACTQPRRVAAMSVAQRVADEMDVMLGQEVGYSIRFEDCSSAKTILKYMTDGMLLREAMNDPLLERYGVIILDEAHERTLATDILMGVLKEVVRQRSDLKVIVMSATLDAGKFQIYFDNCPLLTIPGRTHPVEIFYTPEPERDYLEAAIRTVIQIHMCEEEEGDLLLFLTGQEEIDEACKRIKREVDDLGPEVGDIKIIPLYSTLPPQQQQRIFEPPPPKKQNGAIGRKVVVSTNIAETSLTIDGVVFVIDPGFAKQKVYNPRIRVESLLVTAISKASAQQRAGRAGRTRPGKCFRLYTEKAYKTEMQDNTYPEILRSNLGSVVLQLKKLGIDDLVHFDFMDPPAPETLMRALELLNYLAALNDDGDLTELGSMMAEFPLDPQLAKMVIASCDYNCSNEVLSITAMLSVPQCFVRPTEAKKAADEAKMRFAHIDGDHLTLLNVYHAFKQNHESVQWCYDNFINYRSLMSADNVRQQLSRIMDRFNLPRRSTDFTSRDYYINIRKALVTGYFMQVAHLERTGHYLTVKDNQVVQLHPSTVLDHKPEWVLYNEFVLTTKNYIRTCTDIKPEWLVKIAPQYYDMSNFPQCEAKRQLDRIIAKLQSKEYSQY
UniProt O43143: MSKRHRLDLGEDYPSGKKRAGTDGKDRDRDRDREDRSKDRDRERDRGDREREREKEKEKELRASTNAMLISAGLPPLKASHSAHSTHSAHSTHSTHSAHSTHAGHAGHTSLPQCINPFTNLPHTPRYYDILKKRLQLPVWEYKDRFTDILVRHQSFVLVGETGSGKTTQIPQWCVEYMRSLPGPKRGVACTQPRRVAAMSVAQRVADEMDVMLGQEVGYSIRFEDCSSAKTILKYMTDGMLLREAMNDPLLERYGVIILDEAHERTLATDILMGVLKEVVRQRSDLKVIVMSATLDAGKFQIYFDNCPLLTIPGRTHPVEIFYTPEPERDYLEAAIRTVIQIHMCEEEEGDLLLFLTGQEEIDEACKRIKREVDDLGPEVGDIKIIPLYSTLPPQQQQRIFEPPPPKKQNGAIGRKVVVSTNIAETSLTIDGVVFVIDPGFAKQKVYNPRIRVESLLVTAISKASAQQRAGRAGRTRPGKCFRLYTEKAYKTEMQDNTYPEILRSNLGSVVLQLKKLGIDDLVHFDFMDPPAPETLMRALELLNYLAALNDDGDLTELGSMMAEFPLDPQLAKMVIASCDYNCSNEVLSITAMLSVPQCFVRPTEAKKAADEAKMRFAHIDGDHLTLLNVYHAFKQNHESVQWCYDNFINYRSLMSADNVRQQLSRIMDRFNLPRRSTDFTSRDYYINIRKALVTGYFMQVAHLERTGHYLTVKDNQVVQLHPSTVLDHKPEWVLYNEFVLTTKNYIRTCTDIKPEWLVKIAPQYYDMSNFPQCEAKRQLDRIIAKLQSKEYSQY
UniProt P67809: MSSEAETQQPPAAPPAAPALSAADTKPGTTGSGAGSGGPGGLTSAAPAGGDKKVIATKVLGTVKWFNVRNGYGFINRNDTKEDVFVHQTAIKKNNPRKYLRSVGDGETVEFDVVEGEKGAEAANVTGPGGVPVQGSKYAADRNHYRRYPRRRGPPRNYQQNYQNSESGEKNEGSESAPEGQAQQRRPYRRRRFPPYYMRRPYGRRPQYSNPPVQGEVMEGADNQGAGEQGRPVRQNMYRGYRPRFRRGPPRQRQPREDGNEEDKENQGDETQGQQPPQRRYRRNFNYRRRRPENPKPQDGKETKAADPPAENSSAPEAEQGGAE

Tests used:
Test in all cases: co-IP
[1] = target: FLAG-tagged human APOBEC3G (human) (UniProt Q9HC16)
[2] = target: T1, FLAG-tagged mouse APOBEC3 (pcDNA-FLAG-mA3) (mouse) (UniProt Q99J72)
T1 sequence: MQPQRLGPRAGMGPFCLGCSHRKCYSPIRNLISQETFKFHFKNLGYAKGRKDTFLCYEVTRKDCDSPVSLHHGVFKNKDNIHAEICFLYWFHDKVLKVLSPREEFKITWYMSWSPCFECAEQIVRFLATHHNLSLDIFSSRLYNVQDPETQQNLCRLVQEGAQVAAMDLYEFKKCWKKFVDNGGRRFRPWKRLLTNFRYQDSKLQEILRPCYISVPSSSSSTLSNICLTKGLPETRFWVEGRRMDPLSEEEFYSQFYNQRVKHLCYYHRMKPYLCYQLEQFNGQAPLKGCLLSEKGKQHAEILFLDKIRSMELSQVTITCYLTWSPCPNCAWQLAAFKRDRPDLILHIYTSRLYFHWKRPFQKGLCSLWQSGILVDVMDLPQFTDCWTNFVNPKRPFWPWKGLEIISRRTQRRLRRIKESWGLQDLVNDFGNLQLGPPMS

[3] = target: T1, FLAG-tagged mouse APOBEC3 (pcDNA-FLAG-mA3) (mouse); remark: listed apart in the source
[4] = target: T2, mouse APOBEC3, endogenous in MutuDC1940 (muDC) cells (mouse (endogenous in MutuDC1940)) (UniProt Q99J72)
T2 sequence: T1 sequence

[5] = target: DHX15, endogenous in MutuDC1940 (muDC) cells (mouse (endogenous in MutuDC1940)) (UniProt O35286)

- binding [3]: binds
- binding [2]: binds
Molecule: DEAH-box helicase 15 (DHX15), endogenous in 293T cells (from UniProt O43143 1-795)

- binding [4]: binds
Molecule: DHX15, endogenous in MutuDC1940 (muDC) cells (from UniProt O35286 1-795)

More lines, now with the values behind:

Molecule: Y-box binding protein 1 (YB1), endogenous in 293T cells (from UniProt P67809 1-324)
- binding [1]: binds
- binding [2]: binds

Molecule: DHX15 in the mAPOBEC3 domain-mapping co-IPs ("the DHX15 vector") (from UniProt O43143 1-795)
- binding [2]: binds

B1: mouse APOBEC3, endogenous in MutuDC1940 (muDC) cells (protein, UniProt Q99J72 1-440)
chain: T1 sequence
- binding [5]: binds
